Values quoted from earlier work as cited in patent US10028966B2 (Avalyn Pharma Inc., priority 2014, dated 2018).
At least one structure is not confirmed: it was looked up by name or label, or the drawing left a doubt.

How the values were obtained:
[1] = cited from earlier work
metastatic melanoma = conditions: cited from earlier work; for response rate to treatment: metastatic melanoma patients

| Structure (SMILES) | anti-fibrotic or anti-inflammatory activity [1] | tumors developing resistance to the treatment (metastatic melanoma; in vivo) [%] | response rate to treatment (metastatic melanoma) |
| --- | --- | --- | --- |
| O=C(O)c1ccc(=O)n(-c2ccccc2)c1 [5-carboxy-pirfenidone] | does not appear to have anti-fibrotic or anti-inflammatory activity |  |  |
| CCCS(=O)(=O)Nc1ccc(F)c(C(=O)c2c[nH]c3ncc(-c4ccc(Cl)cc4)cc23)c1F [Vemurafenib] |  | 20 | 53% |
| CN(C)/N=N/c1[nH]cnc1C(N)=O [dacarbazine] |  |  | 7-12% |
